Experiment in all cases: Inhibitor binding by temperature shift assay (SYPRO Orange)
For assay [1], the target named is T1, Pim-1 E124Q (Homo sapiens, UniProt P11309, E124Q).
T1 construct: hexahistidine tag (TEV-cleavable) (cleaved yes); made in house; host or cells: E. coli BL21(DE3)
To be noted: Pim-1 E124Q 2 µM, compound 10 µM. On the procedure: (§1) Thermal melting experiments were carried out using an Mx3005p Real Time PCR machine (Stratagene). Proteins were buffered in 10 mM HEPES pH 7.5, 500 mM NaCl and assayed in a 96-well plate at a final concentration of 2 µM in 20 µl volume. Compounds were added at a final concentration of 10 µM. SYPRO Orange (Molecular Probes) was added as a fluorescence probe at a dilution of 1∶1000. […] Data was analysed as previously described.

Sequences of proteins named here, by UniProt entry; tags and fusion partners are left off.
UniProt P11309, whole entry E124Q: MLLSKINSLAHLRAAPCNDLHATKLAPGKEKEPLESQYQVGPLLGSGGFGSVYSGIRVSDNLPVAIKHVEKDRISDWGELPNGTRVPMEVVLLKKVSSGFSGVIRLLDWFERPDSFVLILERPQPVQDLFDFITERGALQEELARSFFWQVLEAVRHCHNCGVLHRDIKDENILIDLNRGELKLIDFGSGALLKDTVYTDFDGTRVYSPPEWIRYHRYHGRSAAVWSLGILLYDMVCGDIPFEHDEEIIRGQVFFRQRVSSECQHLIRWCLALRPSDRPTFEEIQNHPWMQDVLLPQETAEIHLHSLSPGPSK
UniProt P11309, whole entry E135K: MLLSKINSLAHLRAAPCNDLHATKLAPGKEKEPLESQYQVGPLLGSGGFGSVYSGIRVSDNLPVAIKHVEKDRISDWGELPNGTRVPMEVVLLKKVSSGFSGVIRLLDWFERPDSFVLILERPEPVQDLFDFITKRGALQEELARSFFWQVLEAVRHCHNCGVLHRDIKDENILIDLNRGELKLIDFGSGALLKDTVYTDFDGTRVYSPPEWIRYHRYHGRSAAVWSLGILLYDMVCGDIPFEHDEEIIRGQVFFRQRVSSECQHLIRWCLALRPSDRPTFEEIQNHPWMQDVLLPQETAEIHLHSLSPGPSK
UniProt P11309, whole entry E142D: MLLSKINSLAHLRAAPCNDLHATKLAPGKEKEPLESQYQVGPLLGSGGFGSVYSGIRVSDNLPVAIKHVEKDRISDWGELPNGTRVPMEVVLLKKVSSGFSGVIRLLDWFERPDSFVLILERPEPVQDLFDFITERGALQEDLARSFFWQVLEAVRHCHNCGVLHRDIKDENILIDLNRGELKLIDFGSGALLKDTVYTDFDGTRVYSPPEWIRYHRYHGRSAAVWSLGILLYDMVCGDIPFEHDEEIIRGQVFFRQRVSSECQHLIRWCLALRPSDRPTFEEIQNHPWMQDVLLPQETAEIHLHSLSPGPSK
UniProt P11309, whole entry Y53H: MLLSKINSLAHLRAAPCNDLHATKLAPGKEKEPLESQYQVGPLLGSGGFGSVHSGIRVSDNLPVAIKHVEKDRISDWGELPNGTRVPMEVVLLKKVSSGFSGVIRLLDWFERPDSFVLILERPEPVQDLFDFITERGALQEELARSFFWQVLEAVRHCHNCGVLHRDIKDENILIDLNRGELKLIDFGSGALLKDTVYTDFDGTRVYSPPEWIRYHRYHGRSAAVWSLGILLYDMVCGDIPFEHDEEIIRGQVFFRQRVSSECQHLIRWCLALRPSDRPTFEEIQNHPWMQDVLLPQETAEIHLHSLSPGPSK
UniProt P11309, whole entry: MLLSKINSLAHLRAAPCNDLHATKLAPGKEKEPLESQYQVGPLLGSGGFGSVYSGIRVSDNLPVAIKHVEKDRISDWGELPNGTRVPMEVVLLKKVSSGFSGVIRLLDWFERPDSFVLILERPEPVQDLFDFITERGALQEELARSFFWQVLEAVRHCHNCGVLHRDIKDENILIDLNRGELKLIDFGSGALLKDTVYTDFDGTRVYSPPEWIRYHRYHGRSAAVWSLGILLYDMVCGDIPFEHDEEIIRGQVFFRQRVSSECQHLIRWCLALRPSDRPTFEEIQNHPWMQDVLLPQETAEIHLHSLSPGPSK

Assay [2] has as its target T2, Pim-1 E135K (Homo sapiens, UniProt P11309, E135K).
T2 construct: hexahistidine tag (TEV-cleavable) (cleaved yes); made in house; host or cells: E. coli BL21(DE3)
The settings on record: Pim-1 E135K 2 µM, compound 10 µM. How it is done:
as §1

The target of assay [3] is T3, Pim-1 E142D (Homo sapiens, UniProt P11309, E142D).
T3 construct: hexahistidine tag (TEV-cleavable) (cleaved yes); made in house; host or cells: E. coli BL21(DE3)
To be noted: Pim-1 E142D 2 µM, compound 10 µM. On the procedure: as §1

For assay [4], the target named is T4, Pim-1 Y53H (Homo sapiens, UniProt P11309, Y53H).
T4 construct: hexahistidine tag (TEV-cleavable) (cleaved yes); made in house; host or cells: E. coli BL21(DE3)
The settings on record: Pim-1 Y53H 2 µM, compound 10 µM. How it is done: as §1

Assay [5] addresses T5, Pim-1 wild type (Homo sapiens, UniProt P11309).
T5 construct: hexahistidine tag (TEV-cleavable) (cleaved yes); made in house; host or cells: E. coli BL21(DE3)
The settings on record: Pim-1 wild type 2 µM, compound 10 µM. On the procedure:
as §1

Turning to `CCC(CO)Nc1ccc2ncc(-c3cccc(Cl)c3)n2n1` (centres unmarked) [K00488], the ΔTm in assay [1] came to 6.0 K; in assay [2] it was 6.7 K; in assay [3], 6.9 K; in assay [4] it was 6.0 K; in assay [5] it was 6.3 K.

Values taken from article PMC3673989, “Effect of Single Amino Acid Substitution Observed in Cancer on Pim-1 Kinase Thermodynamic Stability and Structure” (PLoS ONE, 2013).
